From paper PMC8441049
No constants are given. Whether binding was seen depends on the method and setting. Binding seen in cells or lysates may run through a third protein. These calls come from enrichment with a bait or labelling near it, and not all partners need be listed. Blank lines part the entries; values can stand above or below the binder they belong to.

Biological target: 3x Flag-tagged Hos2 (S. pombe)
Test: affinity purification with mass spectrometry; native complex of 3xFlag-Hos2 from S. pombe lysate on anti-Flag M2 beads (binding buffer 150 mM NaCl, 0.5% Triton X-100, 4°C; washes with 300 mM NaCl), eluted with Flag peptide, gel filtration on Superose 6 Increase, fractions analysed by silver-stained SDS-PAGE and mass spectrometry

binding: binds
B1: Hif2 (protein, UniProt O74845 1-564)
chain: MDTNQVNYIIWRYLKECGYSHTKFAFERETGIQNLDKQWGSTCQVGALVEILQKGLQYVELEKHYVDNHSSNEEASKTSIDGESLVNENPCKLPFYLTVPHICETTLTKADSTNGFCEHNNSNDHQLKILQDKGSGSPSSPVMPFKDKIEKRDIDITMADESNVEKDPARPIAVYNSSPVTEITEIKQVTFTGGEDIKSDFFKVIPTKHPVTCADWRPLLQENYHVYEFSIGMTNATLASVSICEEQNDFKAKTDYCLQSSFDNQDITGVAWNNSGSFLAYAFFSGVIEIYDSHGSQILSFHNNKGPVLSLKWSGTDTYLAAGSADGTITLFDQLKQTQYSIDTLASSVLDIEWISFDEFVTSDVEGSLRVYKVDGKAPVSTVSHAHDNSIVALRYNLRISLLLTASSDTTVKLWSRGDAGAFECLHVFSFSSPVNCIDWNLREGTPILAVASNSIVSMYNAISLQQLAVFMRHTAPVSALSFSHNGRYLATGDTSGGVCIWSCKTAKLFKELGSDNSELIAVTNVLPEEQVNFLRWSFDDKDLLIGKQKKEIICCCDFLHDSL

binding: binds
B2: Set3 (protein, UniProt Q10362 1-859)
chain: MWKIRCVCPFEDDDGFTIQCESCEVWQHAVCVNIDANNVPEKYFCEQCQPRPIDADKAHKIQLARLQREEEQSRILSRSRSSNNKRRTSFGKNGASPTHSASPRQGNNTGANGALFSQSTNSSNSGSYRNSVTGATLPNAHAPHSQNRRRRSNHLNNPPEAPITEASNEYVYSFHLEYVPLESNTFSASALEYSKNLDLKNLDESEVLMDGCQVVPISSSKFCCSRFGLVSTCEIPPNTPIMEVKGRVCTQNEYKSDPKNQYNILGAPKPHVFFDSNSQLVVDSRVAGSKARFARKGCQSNSVVSSVYMNGSNSVPRFILYSTTHIAPETEIIGDWTLDISHPFRQFAPGMSRPSFNMEELELLSEVLSTFLSFNECASQDKKNCVFSRVTKYIKAARRASTANRVSVAKDRLSLTPSSTPSTPSPAESLPQPSNPTSVYAKSLKEFWLDKYRLSILQKWPAVKSLPTESVGIDVVMEPKLQPSVKEKKPTKDLQSPLPSVEEDSSNRDKKTDIADLHTDSKVGIADVLSPISPDAALQSDGPLKKAKEPEESSITPTTPPSFNVGESLSRRSASPLQHPRTSPDMLDKTSPCKRGLGTITTVHKKHGSVDHLPSVKRRRSIANDFHGKPDYNKRSLSIERKPEAFKTKGDRPHKVHPSFHRNSDSKLKLEPSSKEKSGSMFFNTLRTVKDKSHVHDTQRSSDVNFSRQNGTRSHSPSVSPVGFSFDKSPVTTPPLPTAPAPVITSRHALVNNQFPTNNPNILDHKANNGDDISNALNTSRSENKPNSNLVQGSVVKPSNTSASALPTSAPKKLSLSEYRQRRQQNILHQQSKDNQAHGDTARPHTVPAATVSNPSFTR
